31 substances from US20240368668A1, “SUBSTRATES AND BIOMARKERS OF ADAMTS7” (The Broad Institute, Inc., priority 2021, published 2024) can be followed below.

The first series relates to mouse ADAMTS7. Put plainly: TMT10 TAILS N-terminomics, SMC1 experiment (Ad-mADAMTS7 WT vs EQ vs Luc, technical replicates, trypsin digest). The conditions noted are these: TAILS HC Overlap; SMC1; total intensity of the peptide. Format: cell-based. The source says:
ADAMTS7 Expression, Cell Culture and Preparation of the Secreted Proteins—Full-length mouse Adamts7 1-1857 (Uniprot Q68SA9, WT or E373Q catalytic mutant) with a carboxyl terminal 3xFLAG tag was used to generate custom adenoviruses as previously described. Adeno-CMV-Luciferase (Ad-Luc) from Vector Biolabs was used as a negative control. Human Coronary Artery Smooth Muscle Cells (HCA-SMC) were obtained from Lonza and expanded in Lonza SmGM-2 media in 15 cm tissue culture plates. Twenty-four hours before media collection, near confluent plates were transduced with 50 MOI adenovirus and switched to Lonza Basal SM media with volumes of 20 ml per 15 cm plate. Expression of the Flag tagged ADAMTS7 was confirmed from the media using western blot and detected using the anti-Flag M2-HRP antibody (Sigma, A8592). Collected media was processed by adding protease inhibitors (1 mM EDTA and 1 mM PMSF) and clarified by 500 g×5 min spin at 4 C to pellet cell debris. Cell media supernatants were then passed through a 0.22 um filter and kept chilled. Processed media was then concentrated 50-100× using 3 kDa Centricon Plus-70 filter unit, spun at 3,500 g×60 min at 4 C. Approximately 10% of the processed, concentrated media was set aside for total secretome proteolytic analysis. The remaining 90% of the processed, concentrated media was buffer exchanged into 50 mM HEPES pH 8.0, 150 mM NaCl (2×50 ml) using the 3 kDa Centricon Plus-70 filter unit and concentrated to >2 mg/ml to serve as input for the TAILS experiment. Secretome and TAILS input samples were stored at −80° C.
For the first experiment, referred to as SMC1, 120 ml of media from 6×15 cm dishes was pooled from each condition (Luc, WT, EQ) and processed to produce three separate inputs for the TAILS experiment. Luc, WT and EQ inputs from the SMC1 experiment were each divided into triplicate 400 ug samples to generate technical replicate TAILS data. For the second experiment, referred to as SMC2, media was processed separately in triplicate for each condition (Luc1, Luc2, Luc3, WT1, WT2, WT3, EQ1, EQ2, EQ3) using 60 ml of media from 3×15 cm dishes for each process replicate. Inputs from the SMC2 experiment used process replicates of 300 ug each to generate TAILS data. The third experiment used input from cultured Human umbilical vein endothelial cells (HUVEC) from Lifeline Cell Technology grown in VascuLife Media and transduced in Lifeline Basal EC (+bFGF2 10 ng/ml). The HUVEC experiment used the same strategy as the SMC2 experiment, with 40 ml of media from 2×15 cm dishes for each process replicate and used 200 ug each to generate TAILS data. Inputs for process replicate experiments were restricted to the lowest concentration from the 9 parallel samples for SMC2 or HUVEC.
TMT10 isotopic labeling and negative selection of non-labeled peptides-Sample preparation was performed based on the TAILS protocol from the Overall lab with some modifications. From a single experiment, nine parallel protein samples in 50 mM HEPES pH 8.0, 150 mM NaCl were separately denatured with guanidinium chloride (Sigma, G4505) to reach a final concentration of 2.5M guanidinium chloride and 250 mM HEPES and incubated at 65° C. for 15 min. Reduction was achieved through addition of tris(2-carboxylethyl) phosphine (TCEP) at a final concentration of […] and incubated at 65° C. for 45 min. Alkylation reaction was performed with addition of iodoacetamide (IAA, Sigma, A3221) to a final concentration of 10 mM IAA for 15 min at room temperature in the dark. Following denaturation, reduction and alkylation steps, ten percent of each of the nine parallel protein samples was removed and combined to serve as a pooled reference. Isobaric tags were added to free amine groups using the TMT10plex Isobaric Mass Tagging Kit (ThermoFisher, 90113) with TMT channels randomly assigned to the nine samples and TMT 131 assigned to the pooled reference. […]
With “ADAM9_69 (VIQAEGKEHIIHLER; listed as Homo sapiens)”, the “SMC1 TAILS.total Intensity” value amounted to 2.56E+10.
Still for that read-out and setting: then “COL1A2_113 (FQGPAGEPGEPGQTGPAGAR; listed as Homo sapiens)”, with 2.09E+09.

Still in this series, the particulars now being: TAILS N-terminal peptide signal, SMC scale-up fractions, mouse ADAMTS7; label = TAILS_id (gene symbol_StartAA).
Substance “ACTB_21 (FAGDDAPR; listed as Homo sapiens)” had a TAILS_SMC_Scaleup_fxns_mATS7i of 6.18E+09.
Same read-out and setting: then “ACTB_105 (LTEAPLNPKANR; listed as Homo sapiens)”, with 5.77E+09; and “ADAM9_69 (VIQAEGKEHIIHLER; listed as Homo sapiens)”, with 2.56E+10.
On to “APLP2_579 (ISETPVDVR; listed as Homo sapiens)”, for which the TAILS_SMC_Scaleup_fxns_mATS7i was determined as 1.83E+08.
The same measure, in the same setting: to “CDC37_43 (FQKEKEELDR; listed as Homo sapiens)” belongs 4.09E+06; to “CDH11_467 (HQEAKVPVAIR; listed as Homo sapiens)”, 2.90E+07.
The same measure, in the same setting: then “CLEC11A_50 (HLQEALGLPAGR; listed as Homo sapiens)”, with 7.22E+07.
On the same count and under the same terms, to “COL1A2_91 (GPMGLMGPR; listed as Homo sapiens)” belongs 6.70E+07; to “COL1A2_113 (FQGPAGEPGEPGQTGPAGAR; listed as Homo sapiens)”, 2.09E+09; to “COL1A2_389 (SAGPPGPPGLR; listed as Homo sapiens)”, 4.24E+07.
“COL1A2_425 (ASGPAGVR; listed as Homo sapiens)” showed a TAILS_SMC_Scaleup_fxns_mATS7i of 3.44E+08.
Same read-out and setting: then “COL1A2_681 (VGAPGPAGATGDR; listed as Homo sapiens)”, with 4.11E+08; and “COL1A2_731 (AAGQPGAKGER; listed as Homo sapiens)”, with 2.50E+08.
On the same count and under the same terms, then “COL1A2_1037 (HHGDQGAPGSVGPAGPR; listed as Homo sapiens)”, with 7.86E+09; and “COL1A2_1127 (SLRPKDYEVDATLKSLNNQIETLLTPEGSR; listed as Homo sapiens)”, with 1.05E+08.
Same read-out and setting: to “COL4A2_172 (YALPKEER; listed as Homo sapiens)” belongs 8.09E+07; to “COL5A1_544 (SQAQAILQQAR; listed as Homo sapiens)”, 2.24E+08.
“COL8A1_90 (MKEIQPAPR; listed as Homo sapiens)” yielded a TAILS_SMC_Scaleup_fxns_mATS7i of 4.20E+07.
The same measure, in the same setting: then “ECM1_43 (YAAPPSPPLSR; listed as Homo sapiens)”, with 3.25E+08; and “ECM1_134 (FGDQSHPEPESWNAAQHCQQDR; listed as Homo sapiens)”, with 4.13E+08; and “EFHD2_67 (QGIGEPQSPSR; listed as Homo sapiens)”, with 2.69E+07.
On the same count and under the same terms, then “EHBP1L1_298 (TAPTPAPR; listed as Homo sapiens)”, with 2.19E+07; and “FLNA_612 (SVEGPSQAKIECDDKGDGSCDVR; listed as Homo sapiens)”, with 8.79E+08.
Still for that read-out and setting: to “FLNA_695 (FTVDAKHGGKAPLR; listed as Homo sapiens)” belongs 3.71E+08.
“FN1_45 (VSQSKPGCYDNGKHYQINQQWER; listed as Homo sapiens)”: the TAILS_SMC_Scaleup_fxns_mATS7i turned out to be 5.68E+10.
The same measure, in the same setting: then “FN1_47 (QSKPGCYDNGKHYQINQQWER; listed as Homo sapiens)”, with 1.26E+10; and “FN1_281 (SGSGPFTDVR; listed as Homo sapiens)”, with 5.31E+09.
Still for that read-out and setting: to “FN1_282 (GSGPFTDVR; listed as Homo sapiens)” belongs 1.05E+10; to “FN1_1731 (FTDVDVDSIKIAWESPQGQVSR; listed as Homo sapiens)”, 9.47E+08.
On the same count and under the same terms, then “FN1_2143 (FEEHGFR; listed as Homo sapiens)”, with 8.90E+07; and “FN1_2217 (FQDTSEYIISCHPVGTDEEPLQFR; listed as Homo sapiens)”, with 3.90E+09.
